Source: article PMC6543673
The exact form of at least one protein or probe is not confirmed. Negatives hold for the conditions tested.

System: GST-MdFLP (FOUR LIPS, R2R3-MYB)
Experiment: EMSA
Details: Not stated, EMSA per Xie et al. and Thermo Scientific kit instructions, biotin-labeled probes, recombinant protein, protein details: GST (pGEX4T-1), label: biotin
[1] = outcompeted by 10- and 20-fold unlabeled probe

Sequence	binding result	binding result [1]
GCTGTGGCCGCTGCCGGTGCCGGGGCGGAAGATGACAGAG (double strand) [MdPIN3 mutant probe]	no binding	–
GCTGTGGCCGCTGCCGGAGCCGGGGCGGAAGATGACAGAG (double strand) [MdPIN3 promoter probe]	–	binds
TTCTGAGACCCGAAAAGCCGAGTGTGTTGGGGACTGTAAG (double strand) [MdPIN10 promoter probe]	–	binds
